From patent publication US9375365B2, “Absorbent article” (UNICHARM CORPORATION, priority 2012, dated 2016)

assay: Rewetting rate of sanitary napkin with top sheet coated with blood modifying agent; details: horse EDTA blood 2 x 3 g at 37° C.; agent coated at about 5 g/m^2; 30 g/cm^2 for 1 minute

Compound	Rewetting rate (%)
CCCCCCCC(=O)OCC(COC(=O)CCCCCCC)OC(=O)CCCCCCC [PANACET 800]	0.3%
CCCCC(CC)C(=O)OCC(COC(=O)C(CC)CCCC)OC(=O)C(CC)CCCC (centres unmarked) [PANACET 800B]	2.0%
CCCCCCCCOC(=O)CCCCC(=O)OCCCCCCCC [Dioctyl adipate]	1.7%
CCCCC(CC)C(=O)OCC(C)(C)COC(=O)C(CC)CCCC (centres unmarked) [UNISTAR H-208BRS, Neopentylglycol di-2-ethylhexanoate]	2.0%
CCCCCCCCCCCC(=O)OCC(O)CO (centres unmarked) [Monomuls 90-L2 lauric acid monoglyceride, lauric acid monoglyceride]	6.2%
CCCCCCCCCCCCOC(=O)CCCCCCCCCCC [ELECTOL WE20, Ester of dodecanoic acid (C12) and dodecyl alcohol (C12)]	1.8%
Isopropyl citrate	12.2%
Caprylic acid diglyceride	4.2%
CCCCCCCCCCCCCC(=O)OCCCCCCCCCCCC [ELECTOL WE40, Ester of tetradecanoic acid (C14) and dodecyl alcohol (C12)]	1.8%
CCCCOC(=O)CC(CC(=O)OCCCC)(OC(C)=O)C(=O)OCCCC [Tributyl O-acetylcitrate]	6.2%
CC(C)CCCCCCCCCCCCCCCOC(=O)CC(O)C(=O)OCCCCCCCCCCCCCCCC(C)C (centres unmarked) [Diisostearyl malate]	5.5%
